Results from paper PMC7934584.
These are yes or no findings as the source states them, for the method shown. Binding seen in cells or lysates may run through a third protein. Some results given as binding are weak or reduced against the parent protein; the word gives no strength.

Sequences of proteins named here, by UniProt entry; tags and fusion partners are left off.
UniProt P42568: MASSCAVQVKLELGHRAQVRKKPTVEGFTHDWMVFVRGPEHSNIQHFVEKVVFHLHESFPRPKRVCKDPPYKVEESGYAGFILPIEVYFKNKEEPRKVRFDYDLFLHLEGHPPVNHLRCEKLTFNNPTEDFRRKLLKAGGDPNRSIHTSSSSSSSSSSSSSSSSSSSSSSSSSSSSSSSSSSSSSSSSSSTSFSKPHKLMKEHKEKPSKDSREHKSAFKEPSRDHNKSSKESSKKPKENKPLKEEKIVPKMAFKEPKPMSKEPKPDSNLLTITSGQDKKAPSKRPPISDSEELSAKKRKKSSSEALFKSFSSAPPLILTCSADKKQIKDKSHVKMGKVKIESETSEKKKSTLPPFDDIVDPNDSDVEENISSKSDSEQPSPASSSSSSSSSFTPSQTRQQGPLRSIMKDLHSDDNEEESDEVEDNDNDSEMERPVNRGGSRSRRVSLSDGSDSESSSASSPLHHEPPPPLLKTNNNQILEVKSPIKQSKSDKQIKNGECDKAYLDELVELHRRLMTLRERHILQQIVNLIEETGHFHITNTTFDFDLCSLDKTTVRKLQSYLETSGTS
UniProt O95863: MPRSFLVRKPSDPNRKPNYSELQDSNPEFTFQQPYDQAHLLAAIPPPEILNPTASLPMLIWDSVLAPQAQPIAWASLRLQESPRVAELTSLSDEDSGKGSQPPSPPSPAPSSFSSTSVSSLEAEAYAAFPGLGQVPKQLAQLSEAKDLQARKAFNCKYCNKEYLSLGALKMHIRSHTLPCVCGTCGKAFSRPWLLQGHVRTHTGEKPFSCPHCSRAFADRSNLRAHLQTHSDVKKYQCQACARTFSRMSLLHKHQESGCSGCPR
UniProt Q15672: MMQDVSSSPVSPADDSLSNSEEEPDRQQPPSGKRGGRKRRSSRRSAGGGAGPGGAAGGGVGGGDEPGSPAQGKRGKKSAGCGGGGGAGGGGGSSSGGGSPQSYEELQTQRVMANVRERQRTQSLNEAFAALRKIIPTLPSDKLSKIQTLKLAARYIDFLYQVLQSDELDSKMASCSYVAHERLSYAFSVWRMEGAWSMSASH

Assays:
[1] = biological target: FLAG-AF9 (human (cDNA from HEK293T cells)) (UniProt P42568); assay: co-IP; MDA-MB-231-FLAG-AF9 OE cells; M2 FLAG beads precipitate the AF9-associated complex; blots for endogenous transcription factors
[2] = biological target: HA-Snail (human (cDNA from MDA-MB-231 cells)) (UniProt O95863); assay: co-IP; reverse co-IP: FLAG-AF9 and HA-Snail (WT, dN ter, dM, dC ter) cotransfected into MDA-MB-231 cells; IP with antibody against HA; blot
[3] = biological target: FLAG-AF9 (human (cDNA from HEK293T cells)) (UniProt P42568); assay: co-IP; HA-Snail and FLAG-AF9 (WT or Y78A) cotransfected into MDA-MB-231 cells; IP with antibody against FLAG; blot

Molecule	binding [1]	further results
Twist1 (from UniProt Q15672 1-202)	no binding	–
FLAG-AF9 (from UniProt P42568 1-568)	–	binding [2]: binds
Snail (from UniProt O95863 1-264)	binds	–
HA-Snail (from UniProt O95863 1-264)	–	binding [3]: binds
Slug (protein, UniProt O43623 1-268) MPRSFLVKKHFNASKKPNYSELDTHTVIISPYLYESYSMPVIPQPEILSSGAYSPITVWTTAAPFHAQLPNGLSPLSGYSSSLGRVSPPPPSDTSSKDHSGSESPISDEEERLQSKLSDPHAIEAEKFQCNLCNKTYSTFSGLAKHKQLHCDAQSRKSFSCKYCDKEYVSLGALKMHIRTHTLPCVCKICGKAFSRPWLLQGHIRTHTGEKPFSCPHCNRAFADRSNLRAHLQTHSDVKKYQCKNCSKTFSRMSLLHKHEESGCCVAH	no binding	–
Twist2 (protein, UniProt Q8WVJ9 1-160) MEEGSSSPVSPVDSLGTSEEELERQPKRFGRKRRYSKKSSEDGSPTPGKRGKKGSPSAQSFEELQSQRILANVRERQRTQSLNEAFAALRKIIPTLPSDKLSKIQTLKLAARYIDFLYQVLQSDEMDNKMTSCSYVAHERLSYAFSVWRMEGAWSMSASH	no binding	–
ZEB2 (protein, UniProt O60315 1-1214) MKQPIMADGPRCKRRKQANPRRKNVVNYDNVVDTGSETDEEDKLHIAEDDGIANPLDQETSPASVPNHESSPHVSQALLPREEEEDEIREGGVEHPWHNNEILQASVDGPEEMKEDYDTMGPEATIQTAINNGTVKNANCTSDFEEYFAKRKLEERDGHAVSIEEYLQRSDTAIIYPEAPEELSRLGTPEANGQEENDLPPGTPDAFAQLLTCPYCDRGYKRLTSLKEHIKYRHEKNEENFSCPLCSYTFAYRTQLERHMVTHKPGTDQHQMLTQGAGNRKFKCTECGKAFKYKHHLKEHLRIHSGEKPYECPNCKKRFSHSGSYSSHISSKKCIGLISVNGRMRNNIKTGSSPNSVSSSPTNSAITQLRNKLENGKPLSMSEQTGLLKIKTEPLDFNDYKVLMATHGFSGTSPFMNGGLGATSPLGVHPSAQSPMQHLGVGMEAPLLGFPTMNSNLSEVQKVLQIVDNTVSRQKMDCKAEEISKLKGYHMKDPCSQPEEQGVTSPNIPPVGLPVVSHNGATKSIIDYTLEKVNEAKACLQSLTTDSRRQISNIKKEKLRTLIDLVTDDKMIENHNISTPFSCQFCKESFPGPIPLHQHERYLCKMNEEIKAVLQPHENIVPNKAGVFVDNKALLLSSVLSEKGMTSPINPYKDHMSVLKAYYAMNMEPNSDELLKISIAVGLPQEFVKEWFEQRKVYQYSNSRSPSLERSSKPLAPNSNPPTKDSLLPRSPVKPMDSITSPSIAELHNSVTNCDPPLRLTKPSHFTNIKPVEKLDHSRSNTPSPLNLSSTSSKNSHSSSYTPNSFSSEELQAEPLDLSLPKQMKEPKSIIATKNKTKASSISLDHNSVSSSSENSDEPLNLTFIKKEFSNSNNLDNKSTNPVFSMNPFSAKPLYTALPPQSAFPPATFMPPVQTSIPGLRPYPGLDQMSFLPHMAYTYPTGAATFADMQQRRKYQRKQGFQGELLDGAQDYMSGLDDMTDSDSCLSRKKIKKTESGMYACDLCDKTFQKSSSLLRHKYEHTGKRPHQCQICKKAFKHKHHLIEHSRLHSGEKPYQCDKCGKRFSHSGSYSQHMNHRYSYCKREAEEREAAEREAREKGHLEPTELLMNRAYLQSITPQGYSDSEERESMPRDGESEKEHEKEGEDGYGKLGRQDGDEEFEEEEEESENKSMDTDPETIRDEEETGDHSMDDSSEDGKMETKSDHEEDNMEDGM	no binding	–
